# Values of other authors in US20100221327A1, “Nanoparticulate azelnidipine formulations” (Elan Pharma International Limited, priority 2005, published 2010).
# At least one read-out could not be matched to a standard name with certainty.
# Conditions: conventional microcrystalline azelnidipine
smiles,measurement,value
"CC1=C(C(=O)OC(C)C)C(c2cccc([N+](=O)[O-])c2)C(C(=O)OC2CN(C(c3ccccc3)c3ccccc3)C2)=C(N)N1 (racemic) [Azelnidipine, (±)-3-(1-Diphenylmethylazetidin-3-yl)-5-isopropyl 2-amino-1,4-dihydro-6-methyl-4-(3-nitrophenyl)-3,5-pyridinedicarboxylate]",Bioavailability in the fasted state as compared to the fed state,limited bioavailability
